Test results as given in article PMC12120788.
These are yes or no findings as the source states them, for the method shown. In cells and extracts the contact can be indirect. Some results given as binding are weak or reduced against the parent protein; the word gives no strength. Sequences can lack the tags named with a protein.

Biological target: T1, PPY-Flag (pancreatic polypeptide, predominant splicing variant, Flag-tagged) (human) (UniProt P01298)
T1 sequence: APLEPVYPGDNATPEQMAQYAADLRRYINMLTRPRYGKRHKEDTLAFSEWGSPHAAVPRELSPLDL
Experiment: co-IP; human CAFs transfected with EGFR-HA plasmid and treated with enriched PPY-Flag supernatant for 24 h; anti-Flag antibody pulls down PPY; blots with anti-Flag and anti-HA

binding: binds
Substance: EGFR-HA (epidermal growth factor receptor, HA-tagged) (from UniProt P00533 25-1210)
